Values of other authors as cited in patent publication US20250288650A1, “Therapeutic Regimens and Methods for Reducing Body Weight and/or Serum Lipids using a GLP-1R and GCGR Agonist” (Spitfire Pharma LLC, priority 2024, published 2025).
At least one compound was matched to its structure with a doubt left.

Settings: over 26 weeks of administration

CCCCCCCCCCCCCCCC(=O)N[C@@H](CCC(=O)NCCCC[C@H](NC(=O)[C@H](C)NC(=O)[C@H](C)NC(=O)[C@H](CCC(N)=O)NC(=O)CNC(=O)[C@H](CCC(=O)O)NC(=O)[C@H](CC(C)C)NC(=O)[C@H](Cc1ccc(O)cc1)NC(=O)[C@H](CO)NC(=O)[C@H](CO)NC(=O)[C@@H](NC(=O)[C@H](CC(=O)O)NC(=O)[C@H](CO)NC(=O)[C@@H](NC(=O)[C@H](Cc1ccccc1)NC(=O)[C@@H](NC(=O)CNC(=O)[C@H](CCC(=O)O)NC(=O)[C@H](C)NC(=O)[C@@H](N)Cc1cnc[nH]1)[C@@H](C)O)[C@@H](C)O)C(C)C)C(=O)N[C@@H](CCC(=O)O)C(=O)N[C@@H](Cc1ccccc1)C(=O)N[C@H](C(=O)N[C@@H](C)C(=O)N[C@@H](Cc1c[nH]c2ccccc12)C(=O)N[C@@H](CC(C)C)C(=O)N[C@H](C(=O)N[C@@H](CCCNC(=N)N)C(=O)NCC(=O)N[C@@H](CCCNC(=N)N)C(=O)NCC(=O)O)C(C)C)[C@@H](C)CC)C(=O)O [liraglutide]
degree of weight loss: 5.5%
